Experiment: Solubility of curcumin compounds
Assay type: physicochemical

solubility in water or ethanol (water or ethanol): insoluble | solubility in water or saline (water or saline): not soluble
SMILES: COc1cc(/C=C/C(=O)CC(=O)/C=C/c2ccc(O)c(OC)c2)ccc1O [curcumin]

From patent US7060733B2, “Methods for treating pancreatitis with curcumin compounds and inhibitors of reactive oxygen species” (The Regents of the University of California, priority 2002, dated 2006)
